In patent US9284543B2, “Neutral active soluble truncated PH20 polypeptides and uses thereof” (Halozyme, Inc., priority 2008, dated 2016):

B1: SPAM1-DAVD: C-terminally truncated human PH20, precursor 456 aa (SEQ ID NO:40), mature 421 aa (SEQ ID NO:92) (protein, listed as Homo sapiens)
chain 1: MGVLKFKHIFFRSFVKSSGVSQIVFTFLLIPCCLTLNFRAPPVIPNVPFLWAWNAPSEFCLGKFDEPLDMSLFSFIGSPRINATGQGVTIFYVDRLGYYPYIDSITGVTVNGGIPQKISLQDHLDKAKKDITFYMPVDNLGMAVIDWEEWRPTWARNWKPKDVYKNRSIELVQQQNVQLSLTEATEKAKQEFEKAGKDFLVETIKLGKLLRPNHLWGYYLFPDCYNHHYKKPGYNGSCFNVEIKRNDDLSWLWNESTALYPSIYLNTQQSPVAATLYVRNRVREAIRVSKIPDAKSPLPVFAYTRIVFTDQVLKFLSQDELVYTFGETVALGASGIVIWGTLSIMRSMKSCLLLDNYMETILNPYIINVTLAAKMCSQVLCQEQGVCIRKNWNSSDYLHLNPDNFAIQLEKGGKFTVRGKPTLEDLEQFSEKFYCSCYSTLSCKEKADVKDTDAVD
chain 2: LNFRAPPVIPNVPFLWAWNAPSEFCLGKFDEPLDMSLFSFIGSPRINATGQGVTIFYVDRLGYYPYIDSITGVTVNGGIPQKISLQDHLDKAKKDITFYMPVDNLGMAVIDWEEWRPTWARNWKPKDVYKNRSIELVQQQNVQLSLTEATEKAKQEFEKAGKDFLVETIKLGKLLRPNHLWGYYLFPDCYNHHYKKPGYNGSCFNVEIKRNDDLSWLWNESTALYPSIYLNTQQSPVAATLYVRNRVREAIRVSKIPDAKSPLPVFAYTRIVFTDQVLKFLSQDELVYTFGETVALGASGIVIWGTLSIMRSMKSCLLLDNYMETILNPYIINVTLAAKMCSQVLCQEQGVCIRKNWNSSDYLHLNPDNFAIQLEKGGKFTVRGKPTLEDLEQFSEKFYCSCYSTLSCKEKADVKDTDAVD
modifications: HuPH20 precursor 1-456; Mature HuPH20 36-456
B2: SPAM1-IISS: C-terminally truncated human PH20, precursor 505 aa (SEQ ID NO:4), mature 470 aa (SEQ ID NO:56) (protein, listed as Homo sapiens)
chain 1: MGVLKFKHIFFRSFVKSSGVSQIVFTFLLIPCCLTLNFRAPPVIPNVPFLWAWNAPSEFCLGKFDEPLDMSLFSFIGSPRINATGQGVTIFYVDRLGYYPYIDSITGVTVNGGIPQKISLQDHLDKAKKDITFYMPVDNLGMAVIDWEEWRPTWARNWKPKDVYKNRSIELVQQQNVQLSLTEATEKAKQEFEKAGKDFLVETIKLGKLLRPNHLWGYYLFPDCYNHHYKKPGYNGSCFNVEIKRNDDLSWLWNESTALYPSIYLNTQQSPVAATLYVRNRVREAIRVSKIPDAKSPLPVFAYTRIVFTDQVLKFLSQDELVYTFGETVALGASGIVIWGTLSIMRSMKSCLLLDNYMETILNPYIINVTLAAKMCSQVLCQEQGVCIRKNWNSSDYLHLNPDNFAIQLEKGGKFTVRGKPTLEDLEQFSEKFYCSCYSTLSCKEKADVKDTDAVDVCIADGVCIDAFLKPPMETEEPQIFYNASPSTLSATMFIVSILFLIISS
chain 2: LNFRAPPVIPNVPFLWAWNAPSEFCLGKFDEPLDMSLFSFIGSPRINATGQGVTIFYVDRLGYYPYIDSITGVTVNGGIPQKISLQDHLDKAKKDITFYMPVDNLGMAVIDWEEWRPTWARNWKPKDVYKNRSIELVQQQNVQLSLTEATEKAKQEFEKAGKDFLVETIKLGKLLRPNHLWGYYLFPDCYNHHYKKPGYNGSCFNVEIKRNDDLSWLWNESTALYPSIYLNTQQSPVAATLYVRNRVREAIRVSKIPDAKSPLPVFAYTRIVFTDQVLKFLSQDELVYTFGETVALGASGIVIWGTLSIMRSMKSCLLLDNYMETILNPYIINVTLAAKMCSQVLCQEQGVCIRKNWNSSDYLHLNPDNFAIQLEKGGKFTVRGKPTLEDLEQFSEKFYCSCYSTLSCKEKADVKDTDAVDVCIADGVCIDAFLKPPMETEEPQIFYNASPSTLSATMFIVSILFLIISS
modifications: HuPH20 precursor 1-505; mature HuPH20 36-505
B3: SPAM1-VKDT: C-terminally truncated human PH20, precursor 452 aa (SEQ ID NO:42), mature 417 aa (SEQ ID NO:94) (protein, listed as Homo sapiens)
chain 1: MGVLKFKHIFFRSFVKSSGVSQIVFTFLLIPCCLTLNFRAPPVIPNVPFLWAWNAPSEFCLGKFDEPLDMSLFSFIGSPRINATGQGVTIFYVDRLGYYPYIDSITGVTVNGGIPQKISLQDHLDKAKKDITFYMPVDNLGMAVIDWEEWRPTWARNWKPKDVYKNRSIELVQQQNVQLSLTEATEKAKQEFEKAGKDFLVETIKLGKLLRPNHLWGYYLFPDCYNHHYKKPGYNGSCFNVEIKRNDDLSWLWNESTALYPSIYLNTQQSPVAATLYVRNRVREAIRVSKIPDAKSPLPVFAYTRIVFTDQVLKFLSQDELVYTFGETVALGASGIVIWGTLSIMRSMKSCLLLDNYMETILNPYIINVTLAAKMCSQVLCQEQGVCIRKNWNSSDYLHLNPDNFAIQLEKGGKFTVRGKPTLEDLEQFSEKFYCSCYSTLSCKEKADVKDT
chain 2: LNFRAPPVIPNVPFLWAWNAPSEFCLGKFDEPLDMSLFSFIGSPRINATGQGVTIFYVDRLGYYPYIDSITGVTVNGGIPQKISLQDHLDKAKKDITFYMPVDNLGMAVIDWEEWRPTWARNWKPKDVYKNRSIELVQQQNVQLSLTEATEKAKQEFEKAGKDFLVETIKLGKLLRPNHLWGYYLFPDCYNHHYKKPGYNGSCFNVEIKRNDDLSWLWNESTALYPSIYLNTQQSPVAATLYVRNRVREAIRVSKIPDAKSPLPVFAYTRIVFTDQVLKFLSQDELVYTFGETVALGASGIVIWGTLSIMRSMKSCLLLDNYMETILNPYIINVTLAAKMCSQVLCQEQGVCIRKNWNSSDYLHLNPDNFAIQLEKGGKFTVRGKPTLEDLEQFSEKFYCSCYSTLSCKEKADVKDT
modifications: HuPH20 precursor 1-452; Mature HuPH20 36-452
B4: SPAM1-DTDA: C-terminally truncated human PH20, precursor 454 aa (SEQ ID NO:41), mature 419 aa (SEQ ID NO:93) (protein, listed as Homo sapiens)
chain 1: MGVLKFKHIFFRSFVKSSGVSQIVFTFLLIPCCLTLNFRAPPVIPNVPFLWAWNAPSEFCLGKFDEPLDMSLFSFIGSPRINATGQGVTIFYVDRLGYYPYIDSITGVTVNGGIPQKISLQDHLDKAKKDITFYMPVDNLGMAVIDWEEWRPTWARNWKPKDVYKNRSIELVQQQNVQLSLTEATEKAKQEFEKAGKDFLVETIKLGKLLRPNHLWGYYLFPDCYNHHYKKPGYNGSCFNVEIKRNDDLSWLWNESTALYPSIYLNTQQSPVAATLYVRNRVREAIRVSKIPDAKSPLPVFAYTRIVFTDQVLKFLSQDELVYTFGETVALGASGIVIWGTLSIMRSMKSCLLLDNYMETILNPYIINVTLAAKMCSQVLCQEQGVCIRKNWNSSDYLHLNPDNFAIQLEKGGKFTVRGKPTLEDLEQFSEKFYCSCYSTLSCKEKADVKDTDA
chain 2: LNFRAPPVIPNVPFLWAWNAPSEFCLGKFDEPLDMSLFSFIGSPRINATGQGVTIFYVDRLGYYPYIDSITGVTVNGGIPQKISLQDHLDKAKKDITFYMPVDNLGMAVIDWEEWRPTWARNWKPKDVYKNRSIELVQQQNVQLSLTEATEKAKQEFEKAGKDFLVETIKLGKLLRPNHLWGYYLFPDCYNHHYKKPGYNGSCFNVEIKRNDDLSWLWNESTALYPSIYLNTQQSPVAATLYVRNRVREAIRVSKIPDAKSPLPVFAYTRIVFTDQVLKFLSQDELVYTFGETVALGASGIVIWGTLSIMRSMKSCLLLDNYMETILNPYIINVTLAAKMCSQVLCQEQGVCIRKNWNSSDYLHLNPDNFAIQLEKGGKFTVRGKPTLEDLEQFSEKFYCSCYSTLSCKEKADVKDTDA
modifications: HuPH20 precursor 1-454; Mature HuPH20 36-454
B5: SPAM1-ADVK: C-terminally truncated human PH20, precursor 450 aa (SEQ ID NO:43), mature 415 aa (SEQ ID NO:95) (protein, listed as Homo sapiens)
chain: MGVLKFKHIFFRSFVKSSGVSQIVFTFLLIPCCLTLNFRAPPVIPNVPFLWAWNAPSEFCLGKFDEPLDMSLFSFIGSPRINATGQGVTIFYVDRLGYYPYIDSITGVTVNGGIPQKISLQDHLDKAKKDITFYMPVDNLGMAVIDWEEWRPTWARNWKPKDVYKNRSIELVQQQNVQLSLTEATEKAKQEFEKAGKDFLVETIKLGKLLRPNHLWGYYLFPDCYNHHYKKPGYNGSCFNVEIKRNDDLSWLWNESTALYPSIYLNTQQSPVAATLYVRNRVREAIRVSKIPDAKSPLPVFAYTRIVFTDQVLKFLSQDELVYTFGETVALGASGIVIWGTLSIMRSMKSCLLLDNYMETILNPYIINVTLAAKMCSQVLCQEQGVCIRKNWNSSDYLHLNPDNFAIQLEKGGKFTVRGKPTLEDLEQFSEKFYCSCYSTLSCKEKADVK
modifications: HuPH20 precursor 1-450
B6: SPAM1-VDVC: C-terminally truncated human PH20, precursor 458 aa (SEQ ID NO:39), mature 423 aa (SEQ ID NO:91) (protein, listed as Homo sapiens)
chain 1: MGVLKFKHIFFRSFVKSSGVSQIVFTFLLIPCCLTLNFRAPPVIPNVPFLWAWNAPSEFCLGKFDEPLDMSLFSFIGSPRINATGQGVTIFYVDRLGYYPYIDSITGVTVNGGIPQKISLQDHLDKAKKDITFYMPVDNLGMAVIDWEEWRPTWARNWKPKDVYKNRSIELVQQQNVQLSLTEATEKAKQEFEKAGKDFLVETIKLGKLLRPNHLWGYYLFPDCYNHHYKKPGYNGSCFNVEIKRNDDLSWLWNESTALYPSIYLNTQQSPVAATLYVRNRVREAIRVSKIPDAKSPLPVFAYTRIVFTDQVLKFLSQDELVYTFGETVALGASGIVIWGTLSIMRSMKSCLLLDNYMETILNPYIINVTLAAKMCSQVLCQEQGVCIRKNWNSSDYLHLNPDNFAIQLEKGGKFTVRGKPTLEDLEQFSEKFYCSCYSTLSCKEKADVKDTDAVDVC
chain 2: LNFRAPPVIPNVPFLWAWNAPSEFCLGKFDEPLDMSLFSFIGSPRINATGQGVTIFYVDRLGYYPYIDSITGVTVNGGIPQKISLQDHLDKAKKDITFYMPVDNLGMAVIDWEEWRPTWARNWKPKDVYKNRSIELVQQQNVQLSLTEATEKAKQEFEKAGKDFLVETIKLGKLLRPNHLWGYYLFPDCYNHHYKKPGYNGSCFNVEIKRNDDLSWLWNESTALYPSIYLNTQQSPVAATLYVRNRVREAIRVSKIPDAKSPLPVFAYTRIVFTDQVLKFLSQDELVYTFGETVALGASGIVIWGTLSIMRSMKSCLLLDNYMETILNPYIINVTLAAKMCSQVLCQEQGVCIRKNWNSSDYLHLNPDNFAIQLEKGGKFTVRGKPTLEDLEQFSEKFYCSCYSTLSCKEKADVKDTDAVDVC
modifications: HuPH20 precursor 1-458; Mature HuPH20 36-458

Test system: CHO-S cells
Assay: Western blot analysis of PH20 expression in media and cells after transient expression
Format: cell-based, Chinese Hamster
Conditions: band at approximately 66 kDa
Procedure, shortened: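 PH20 expression and solubility were judged by anti-PH20 Western blot of non-reduced media and cell fractions, with expression shown by a ~66 kDa band. Samples came from CHO-S cells transiently transfected (GeneJuice) with mutant PH20-HZ24 DNA and cultured 48-72 h. GPI-anchored mutants were cleaved with PI-PLC to release soluble protein.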

Protein Expression, YES:
B1, B2, B3, B4, B5, B6
